Values from PubChem BioAssay AID1259425 (University of Nebraska Medical Center, 2018).

- Test: 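Find knockdowns that reproduce the gene expression pattern seen when KSR1 is lost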 (primary screen)
- Cell system: HCT116 human colon cancer cells
- Knock-down reagent: siRNA pool against human genes, 50 nM siRNA
- Detection: 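mRNA of six signature genes measured together by branched-DNA assay after 50 nM siRNA pool, blank removed, divided by geometric mean of two housekeeping genes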
- Scale: BNIP3L mRNA: higher = more BNIP3L transcript after knockdown; NDRG1 mRNA: higher = more NDRG1 transcript after knockdown; BNIP3 mRNA: higher = more BNIP3 transcript after knockdown; ALDOC mRNA: higher = more ALDOC transcript after knockdown
Here is a random part of about 14,000 reagents. Some reagents were tested in more than one well and are listed for each. Further read-outs or replicates are left out here. Not stated in the record: the time to read-out.

no.	Target gene	BNIP3L mRNA, set 1	NDRG1 mRNA, set 1	BNIP3 mRNA, set 1	ALDOC mRNA, set 1
1	ELMOD1 (GeneID 55531)	0.0858	0.163	0.267	0.00604
2	MRPL4 (GeneID 51073)	0.215	1.01	0.493	0.0714
3	TRMT13 (GeneID 54482)	0.145	0.17	0.358	0.0323
4	APOA1 (GeneID 335)	0.0923	0.119	0.403	-0.000583
5	ARPP21 (GeneID 10777)	0.0856	0.361	0.301	0.0477
6	GMPR (GeneID 2766)	0.0605	0.117	0.221	0.0201
7	GRK7 (GeneID 131890)	0.102	0.165	0.28	0.0133
8	GRK7 (GeneID 131890)	0.166	0.139	0.277	0.0425
9	BMP2K (GeneID 55589)	0.0674	0.0857	0.331	0.0188
10	POMGNT2 (GeneID 84892)	0.114	0.168	0.18	0.0148
11	CYTH4 (GeneID 27128)	0.168	0.414	0.475	0.0379
12	RELCH (GeneID 57614)	0.188	0.127	0.425	0.0564
13	SIPA1L1 (GeneID 26037)	0.0949	0.134	0.348	0.0352
14	GRM8 (GeneID 2918)	0.298	0.563	0.974	0.0456
15	C19orf53 (GeneID 28974)	0.0904	0.138	0.333	0.0298
16	FOXP1 (GeneID 27086)	0.0903	0.14	0.326	0.0316
17	TEX28 (GeneID 1527)	0.0897	0.291	0.266	0.0141
18	RASAL1 (GeneID 8437)	0.127	0.0859	0.272	0.00838
19	DUSP21 (GeneID 63904)	0.0779	0.0721	0.255	0.0325
20	TRIOBP (GeneID 11078)	0.0916	0.269	0.25	0.00635
21	MDM2 (GeneID 4193)	0.0663	0.135	0.214	0.018
22	CRAMP1 (GeneID 57585)	0.135	0.168	0.319	0.0274
23	PAIP1 (GeneID 10605)	0.0752	0.14	0.217	0.0322
24	RER1 (GeneID 11079)	0.221	0.351	0.465	0.0258
25	ANKRD13C (GeneID 81573)	0.103	0.132	0.253	0.0787
26	CMAS (GeneID 55907)	0.135	0.15	0.205	0.0801
27	SPSB3 (GeneID 90864)	0.158	0.101	0.289	0.0396
28	BAZ2B (GeneID 29994)	0.214	0.12	0.235	0.0201
29	RBM27 (GeneID 54439)	0.111	0.34	0.525	0.0332
30	OSTF1 (GeneID 26578)	0.151	0.269	0.484	0.0252
31	CHSY1 (GeneID 22856)	0.0661	0.209	0.286	0.0513
32	RIPOR2 (GeneID 9750)	0.0988	0.231	0.277	0.0463
33	MYO7A (GeneID 4647)	0.0756	0.26	0.335	0.014
34	NAPG (GeneID 8774)	0.0278	0.342	0.254	0.0278
35	IRS4 (GeneID 8471)	0.101	0.118	0.287	0.0303
36	DPM1 (GeneID 8813)	0.126	0.475	0.396	0.0127
37	TMEM63A (GeneID 9725)	0.0821	0.241	0.333	0.0185
38	B4GALT7 (GeneID 11285)	0.0693	0.18	0.282	0.0142
39	CEP57 (GeneID 9702)	0.109	0.139	0.316	0.0325
40	ACOT11 (GeneID 26027)	0.182	0.245	0.543	0.0592
41	TMEM176B (GeneID 28959)	0.161	0.43	0.239	0.0183
42	HAUS2 (GeneID 55142)	0.0463	0.14	0.415	0.0349
43	TNFSF8 (GeneID 944)	0.058	0.313	0.232	0.0252
44	ARMC10 (GeneID 83787)	0.302	0.305	0.45	0.133
45	USP18 (GeneID 11274)	0.0833	0.111	0.226	0.00856
46	DHFR (GeneID 1719)	0.182	0.162	0.422	0.0689
47	ZC3H14 (GeneID 79882)	0.395	0.395	0.433	0.0668
48	IPMK (GeneID 253430)	0.154	0.273	0.383	0.0234
49	HOXD1 (GeneID 3231)	0.137	0.079	0.227	0.0154
50	TRAF4 (GeneID 9618)	0.0734	0.131	0.216	0.0158

Copied from above, 8 entries:
no.	Target gene	BNIP3L mRNA, set 1	NDRG1 mRNA, set 1	BNIP3 mRNA, set 1	ALDOC mRNA, set 1
26	CMAS (GeneID 55907)	0.135	0.15	0.205	0.0801
27	SPSB3 (GeneID 90864)	0.158	0.101	0.289	0.0396
28	BAZ2B (GeneID 29994)	0.214	0.12	0.235	0.0201
29	RBM27 (GeneID 54439)	0.111	0.34	0.525	0.0332
30	OSTF1 (GeneID 26578)	0.151	0.269	0.484	0.0252
31	CHSY1 (GeneID 22856)	0.0661	0.209	0.286	0.0513
32	RIPOR2 (GeneID 9750)	0.0988	0.231	0.277	0.0463
33	MYO7A (GeneID 4647)	0.0756	0.26	0.335	0.014
